Record: PubChem BioAssay AID1259297 (Sanger Institute, 2017)
In all, the deposit lists 794 reagents; below is a part drawn at random. 13 of all reagents (1.6%) count as active. 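Calls reflect knock-down without drug only; drug synergy is judged separately, with scores above 0.15 counted as synergy.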 Unmarked entries are inactive. Not all columns of the deposit are shown. No sequences are given here. Not given: the amount of reagent, the time to read-out.

- Test: 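Kinase knock-downs that lower colorectal cancer cell viability or act with drugs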 (primary screen)
- Cells: human RCM1 colorectal cancer cell line
- Reagents: siRNA pool against human genes
- Conditions: separate arms: DMSO vehicle, or one anchor drug at a mild dose: BYL719 1 µM, cetuximab 5 µg/ml, trametinib 10 nM
- Read-out: 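Replicate-mean well viability as a share of non-targeting pool control, a robust z-score without drug, and synergy scores for BYL719, cetuximab and trametinib arms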
- Reading the numbers: viability z-score, knock-down alone: higher = more viable cells than non-targeting controls
- Active means: 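Called essential if knock-down without drug gives a viability robust z-score under -3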
- Meaning of the calls: active = essential when knocked down alone; inactive = no clear loss of viability alone

LCK gave viability z-score, knock-down alone 0.0384.
BRDT gave viability z-score, knock-down alone 0.9.
STK11 scored viability z-score, knock-down alone -0.483.
MAP3K3 scored viability z-score, knock-down alone 0.0774.
TESK1 scored viability z-score, knock-down alone 0.9.
Knock-down of ANKK1 came out at: viability z-score, knock-down alone 0.9.
PIM2 scored viability z-score, knock-down alone 0.0832.
Depletion of CLK4 resulted in: viability z-score, knock-down alone 0.517.
Depletion of MAP2K2 came out at: viability z-score, knock-down alone -0.588.
Knock-down of MAP3K14 resulted in: viability z-score, knock-down alone -0.687.
Against CHEK2 the deposit lists viability z-score, knock-down alone -0.108.
With knock-down of ELP1, the record shows viability z-score, knock-down alone 0.9.
LRRK2 showed viability z-score, knock-down alone 0.632.
After knock-down of NUAK2, the record shows viability z-score, knock-down alone -0.31.
Depletion of MYLK3 resulted in: viability z-score, knock-down alone 0.9.
Depletion of LMTK3 came out at: viability z-score, knock-down alone 0.791.
TRPM7 gave viability z-score, knock-down alone -0.984.
With knock-down of ATM, the record shows viability z-score, knock-down alone -0.729.
Depletion of TAOK1 resulted in: viability z-score, knock-down alone -0.994.
BMPR2 gave viability z-score, knock-down alone -0.0744.
With knock-down of ETNK2 the results were viability z-score, knock-down alone -0.537.
PIP4K2B showed viability z-score, knock-down alone -0.573.
For NEK10 the deposit lists viability z-score, knock-down alone -0.358.
RPS6KA6 gave viability z-score, knock-down alone -0.307.
Silencing of SOS2 came out at: viability z-score, knock-down alone 0.9.
Knock-down of COASY resulted in: viability z-score, knock-down alone -4.07 (active).
After knock-down of MVK, the record shows viability z-score, knock-down alone -0.0923.
For PIP5K1A the deposit lists viability z-score, knock-down alone -0.611.
CDKN2D scored viability z-score, knock-down alone 0.104.
Knock-down of GUCY2EP came out at: viability z-score, knock-down alone -0.33.
For CRKL, the entry reads viability z-score, knock-down alone -1.11.
CHKB scored viability z-score, knock-down alone -0.415.
For NEK3, the entry reads viability z-score, knock-down alone -0.331.
After knock-down of ITSN1, the record shows viability z-score, knock-down alone -0.268.
Knock-down of FYN came out at: viability z-score, knock-down alone -0.481.
With knock-down of CASP8, the screen gave viability z-score, knock-down alone 0.9.

Entries listed so far whose gene name begins with T or t (3):
TESK1 → viability z-score, knock-down alone = 0.9
TRPM7 → viability z-score, knock-down alone = -0.984
TAOK1 → viability z-score, knock-down alone = -0.994
